Experimental data taken from PubChem BioAssay AID434947 (Broad Institute, 2010).
Screen size: about 2,200 compounds; about 15 (0.7%) were called active.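 Rule for the calls: active = fitted half-maximal concentration for loss of luminescence signal no more than a set limit of log units above the top tested concentration; inconclusive = flat fit with 30 to 70% signal loss, or invalid fit; inactive = half-maximal concentration above that set limit.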 Some of the results follow.

Assay: ADP-Glo luciferase signal interference – biochemical, luminescence, cell-free, homogeneous, artefact control for GSK3beta inhibitor project, dose response (AID 434947);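 note: kinase-free counter screen of ADP-Glo detection reagents for GSK3beta hits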
Details: Cell-free ADP-Glo reagents, 5 uM ADP

EC50, inactive:
Cc1ccc2c(c1)COc1c3ccc(C(=O)O)cc3nn1-2 > 30 µM, COc1ccc(OC)c(Nc2nc(N)c([N+](=O)[O-])c(NC3CCCCC3)n2)c1 > 30 µM, O=C(O)c1ccccc1C(=O)Nc1nccs1 > 30 µM, Cc1nn(CC(=O)N2CCN(c3ccccn3)CC2)c(=O)c2cc3sccc3n12 > 30 µM, COc1ccc2nc(C)cc(N3CCN(c4ccccc4)CC3)c2c1 > 30 µM, COC(=O)c1nnn(-c2nonc2N)c1CSc1nnc(N)s1 > 30 µM, O=C(NCCN1C(=O)S/C(=C\c2ccc(Cl)c(Cl)c2)C1=O)C1COc2ccccc2O1 (stereo not drawn) > 30 µM, O=C(O)COc1ccc2occ(C(=O)c3ccccc3)c2c1 > 30 µM, OCCNc1nc2nonc2nc1NCCO > 30 µM, CCC(C)Nc1nc(N)c([N+](=O)[O-])c(Nc2cc(OC)ccc2OC)n1 (stereo not drawn) > 30 µM, COc1ccc(N2CCN(CCNC(=O)c3nnc(Cc4c(F)cccc4Cl)o3)CC2)cc1 > 30 µM, C/C(=N\NC(=O)c1nnn(-c2nonc2N)c1CN1CCC(C)CC1)c1cccc(Br)c1 > 30 µM, O=c1cc(-c2ccc(O)cc2)oc2cc(O)cc(O)c12 > 30 µM, O=C(C(Cc1ccccc1)n1cccc1)N1CCN(c2cccc(Cl)c2)CC1 (stereo not drawn) > 30 µM, Cc1c(Br)c([N+](=O)[O-])nn1CCCC(=O)N1CCN(c2ccccc2)CC1 > 30 µM, C/C=C/c1ccc(OCC(=O)O)c(OC)c1 > 30 µM, COc1ccc(CCNc2nc(-c3cccnc3)nc3ccccc23)cc1OC > 30 µM, CN(C)c1ccc(/C=N/NC(=O)c2nnn(-c3nonc3N)c2CN2CCCCCC2)cc1 > 30 µM, COc1ccc(NC(=O)NC2CCCc3ccccc32)cc1 (stereo not drawn) > 30 µM, COc1ccc2nc(NC(=O)CSc3nc4cccnc4n3C)sc2c1 > 30 µM, O=[N+]([O-])c1ccc(N2CCCCCC2)c([N+](=O)[O-])c1 > 30 µM, O=c1cc(-c2ccccc2Cl)oc2c(NS(=O)(=O)c3cccs3)ccc(O)c12 > 30 µM, COc1ccc(CNC(=O)CN(Cc2cccs2)C(=O)CCC(=O)Nc2ccccn2)cc1 > 30 µM, O=C(CCSCCc1ccccn1)Nc1ccc(Br)cn1 > 30 µM, Nc1nc(Nc2ccccc2)nc(NCCO)c1[N+](=O)[O-] > 30 µM, Clc1cccc(CNc2nc(-c3cccnc3)nc3ccccc23)c1 > 30 µM, COc1ccc(C(=O)NCC(=O)N/N=C/c2ccc(C)o2)cc1OC > 30 µM, COc1ccc(-c2nn(-c3ccccc3)cc2/C=N/n2cnnc2)cc1OC > 30 µM, COc1ccc(Nc2ccccc2C(=O)O)cc1 > 30 µM, CCCn1nc(NC(=O)C2CCCO2)c2cc3cc(C)ccc3nc21 (stereo not drawn) > 30 µM, O=C1CC(O)(C(F)(F)F)Oc2c1ccc1ccccc21 (stereo not drawn) > 30 µM, OCCCNc1cc(-c2ccnc(Nc3cccc(Cl)c3)n2)ccn1 > 30 µM, Cc1ccc(-c2nn(-c3ccccc3)cc2/C=N/n2c(-c3ccncc3)n[nH]c2=S)cc1 > 30 µM, CC(C)c1c(C(=O)N/N=C/c2ccoc2)nnn1-c1nonc1N > 30 µM, N#Cc1c2n(c3c(=S)nc[nH]c13)CCCCC2 > 30 µM, O=C1c2ccccc2NC(c2cn[nH]c2-c2ccccc2)N1O (stereo not drawn) > 30 µM, COc1ccc(/C=c2\s/c(=C\C(=O)C(C)(C)C)[nH]c2=O)cc1O > 30 µM, COCCN(CC(=O)NCc1ccc(F)cc1)C(=O)CCC(=O)Nc1ccccn1 > 30 µM, CCN1C(=O)N[C@@H](c2ccccc2)[C@@H](C(=O)OC)[C@H]1C > 30 µM, O=C(NCc1ccccc1)c1ccc2nccnc2c1 > 30 µM, Cc1nn(-c2ccccc2)c2c1cc1c(=O)n(C)c(=O)nc-1n2-c1ccccc1F > 30 µM, CN1CCc2c(sc(NC(=O)Cc3ccccc3)c2C(N)=O)C1 > 30 µM, O=C(O)Cn1cc(/C=N/Nc2ccc([N+](=O)[O-])cn2)c2ccccc21 > 30 µM, Cc1cc(C)n2nc(C(=O)N/N=C/c3ccc(O)cc3)nc2n1 > 30 µM, Nc1nonc1-n1nnc(C(=O)N/N=C/c2ccccn2)c1-c1ccccc1 > 30 µM, O=C1NCCCc2c1oc1cc(Br)c(O)c(Br)c21 > 30 µM, COc1cccc(CCNC(=O)c2ccc(C#N)cc2)c1 > 30 µM, CCOC(=O)c1nnn(CC(=O)Nc2cccc(OC)c2)c1C(=O)OCC > 30 µM, Cc1ccccc1/C=N/Nc1ncnc2nc[nH]c12 > 30 µM, COc1cccc(/C=N/Nc2cc(Cl)nc(C)n2)c1O > 30 µM, CN(C)c1ccc(C(=O)NN2C(=O)c3ccccc3C2=O)cc1 > 30 µM, Cc1ccc(S(=O)(=O)NCC2COc3ccccc3O2)cc1 (stereo not drawn) > 30 µM, COc1ccc(/C=C(/NC(=O)c2ccccc2)C(=O)N/N=C/c2ccncc2)c(OC)c1 > 30 µM, COc1ccccc1NC(=O)C(C)Nc1ccc(C)c(Cl)c1 (stereo not drawn) > 30 µM, COc1ccc(C(=O)c2coc3ccc(O)c(CN(C)C)c23)cc1 > 30 µM, CCOC(=O)C1=C(C)Nc2ncnn2C1c1cc(Br)ccc1F (stereo not drawn) > 30 µM, C[C@@H]1O[C@@H](Oc2c(-c3cc(O)c(O)c(O)c3)oc3cc(O)cc(O)c3c2=O)[C@H](O)[C@H](O)[C@H]1O > 30 µM, CCCc1c(C(=O)N/N=C/c2ccncc2)nnn1-c1nonc1N > 30 µM, COc1ccccc1-c1ccc(=O)n(CC(=O)NCc2ccco2)n1 > 30 µM, CCN1CCN(Cc2c(O)ccc3c2O/C(=C\C=C\c2ccccc2)C3=O)CC1 > 30 µM, COc1ccc(-c2nn(-c3ccccc3)cc2/C=C/C(=O)N2CCOCC2)cc1OC > 30 µM, Fc1ccc(CSc2ccc3nnc(-c4cccs4)n3n2)cc1 > 30 µM, C=CCN=C(NC#N)SCC(=O)c1cccc(OC)c1 > 30 µM, Cc1nn(-c2ccccn2)c2c1C(c1ccsc1)C1=C(CCCC1=O)N2 (stereo not drawn) > 30 µM, Cc1ccc(C(=O)c2coc3ccc(O)c(CN(C)C)c23)cc1 > 30 µM, CC1=C(C(=O)OCc2ccccc2)C(c2ccco2)n2ncnc2N1 (stereo not drawn) > 30 µM, COC(=O)CCC(=O)Oc1ccc(OC(=O)CCC(=O)OC)cc1 > 30 µM, COc1ccc(C(O)c2coc3ccc(O)c(CN(C)C)c23)cc1 (stereo not drawn) > 30 µM, COc1ccc(-c2nn(-c3ccccc3)cc2/C=C(\C#N)S(=O)(=O)c2ccccc2)cc1OC > 30 µM, COc1ccc(CNC(=O)CN(Cc2ccccc2)C(=O)CCC(=O)Nc2nccs2)cc1 > 30 µM, COc1ccc(Nc2nc(N)c(C(=O)c3ccc(OC)cc3)s2)cc1 > 30 µM, Cc1cc(-c2[nH]nc3c2C(c2cccc(O)c2)C(C#N)=C(N)O3)c(C)s1 (stereo not drawn) > 30 µM, CCC(=O)Nc1sc2c(c1C(N)=O)CCN(Cc1ccccc1)C2 > 30 µM, O=C(O)COc1ccc2oc3ccccc3c2c1 > 30 µM, O=C(CSc1nnc(-c2ccco2)n1Cc1ccco1)N1CCOCC1 > 30 µM, O=C(Nc1ncc([N+](=O)[O-])s1)c1ccco1 > 30 µM, CCCC1=C(C(=O)OCC)C(c2ccco2)n2ncnc2N1 (stereo not drawn) > 30 µM, CCNc1nc(N)c(C(=C(C#N)C#N)c2ccccc2)s1 > 30 µM, O=C(OCc1ccc(COC(=O)c2ccc(O)cc2)cc1)c1ccc(O)cc1 > 30 µM, COc1ccc(Cl)cc1NC(=O)CS(=O)(=O)c1cccc2nsnc12 > 30 µM, CCOc1ccc(C(=O)NCC(=O)OCc2c(C)noc2C)cc1 > 30 µM, CCSc1nc(N)nc(-c2cccs2)c1C#N > 30 µM, COc1ccc(-c2nn(-c3ccccc3)cc2CO)cc1 > 30 µM, COc1ccc(-c2nn(-c3ccccc3)cc2/C=N/O)cc1 > 30 µM, Nc1nc(NCCCN2CCOCC2)nc(Nc2cccc(F)c2)c1[N+](=O)[O-] > 30 µM, Cc1cccc(/C=C2/Sc3ccc(C(=O)NCCCN4CCOCC4)cc3NC2=O)c1 > 10 µM, CC(C)c1ccc(NS(=O)(=O)c2ccc(Cl)nc2)cc1 > 30 µM, Nc1ncnc(Nc2cccc(C(F)(F)F)c2)n1 > 30 µM, CCN1CCN(c2c(C=O)c(Cl)nc3ccc(OC)cc23)CC1 > 30 µM, Cc1ccc(CNc2nc(N)c([N+](=O)[O-])c(NCCO)n2)cc1 > 30 µM, c1cc(CSc2nnc(-c3ccc4c(c3)OCO4)o2)ccn1 > 30 µM, Cc1nc(Nc2ccccc2)sc1C > 30 µM, CCn1c(SCC(=O)Nc2ccc(N(C)C)cc2)nnc1C1CC1 > 30 µM
